Record: PubChem BioAssay AID1259405 (NCATS, 2018)
This is an unselected part of about 50,000 reagents tested. About 4,000 of all reagents (8%) were called active. 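Mouse siRNA library applied to hamster cells; one well for each siRNA.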 Entries without a mark were called inactive. The numbers tell different reagents against one gene apart. Further read-outs or replicates are left out here. No sequences are given here.

Aim: 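Silenced genes that increase secreted GFP made by CHO cells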 (primary screen)
Cell system: Chinese hamster CHO-K1 ovary cells with stable secreted eGFP expression
Knock-down reagent: single siRNA against mouse genes, 0.8 pmol siRNA per well (2 µl of 400 nM stock)
Timing: 3 days
Measurement: 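Percent of the per-plate non-targeting control median for intracellular GFP per well by laser scanning cytometry and for cell viability by ATP luminescence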
Direction: GFP, % of control: higher = more GFP per well, higher productivity
Rule for the call: 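a knock-down is called active if GFP reaches 120% or more of non-targeting control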

GFP, % of control, by gene and reagent
Snx20: #1 55.2; #2 103; #3 98.8
Oxct2a: #1 112; #2 83.9; #3 54.5
Lama2: #1 101; #2 81.8
Zfp219: #1 99.9; #2 57.3; #3 80
Thsd7b: #1 61.9; #2 93.9; #3 92.7
Radx: #1 82.7; #2 111; #3 26.7
Mt4: #1 59.5; #2 78.3; #3 82.3
Vmn2r-ps105: #1 87.6; #2 159 (active); #3 103
Mims1: #1 40.3; #2 99.8; #3 113
Pigu: #1 37.5; #2 45.3; #3 115
Gnpnat1: #1 122 (active); #2 125 (active); #3 95.3
Kcnh3: #1 107; #2 121 (active); #3 85.4
Sh3glb1: #1 66.3; #2 53.3; #3 0
Kcnd1: #1 90.8; #2 78.2; #3 88
Atp6v0c: #1 101; #2 144 (active); #3 76.5; #4 101; #5 101; #6 116
Ccne2: #1 134 (active); #2 87.3; #3 97.1
Nmt2: #1 81.8; #2 94.2; #3 93.9
Rps15: #1 54; #2 47.5; #3 126 (active)
Cct8l1: #1 105; #2 96.5; #3 87.6

As entered above:
Entry of Radx #1 in “GFP, % of control”: 82.7
Result of Atp6v0c #2 under “GFP, % of control”: 144 (active)
For “GFP, % of control”, Kcnd1 #3 reads 88
Pigu #2, GFP, % of control → 45.3
Rps15 #1, GFP, % of control = 54
Result of Sh3glb1 #2 under “GFP, % of control”: 53.3
